For seven molecules, binding results are on record in article doi:10.1101/2020.11.16.384750.

In assay [1] the target is T1, MAP3K7 (TAK1), C-terminal His-GSG-Flag tagged bait (UniProt O43318).
T1 sequence: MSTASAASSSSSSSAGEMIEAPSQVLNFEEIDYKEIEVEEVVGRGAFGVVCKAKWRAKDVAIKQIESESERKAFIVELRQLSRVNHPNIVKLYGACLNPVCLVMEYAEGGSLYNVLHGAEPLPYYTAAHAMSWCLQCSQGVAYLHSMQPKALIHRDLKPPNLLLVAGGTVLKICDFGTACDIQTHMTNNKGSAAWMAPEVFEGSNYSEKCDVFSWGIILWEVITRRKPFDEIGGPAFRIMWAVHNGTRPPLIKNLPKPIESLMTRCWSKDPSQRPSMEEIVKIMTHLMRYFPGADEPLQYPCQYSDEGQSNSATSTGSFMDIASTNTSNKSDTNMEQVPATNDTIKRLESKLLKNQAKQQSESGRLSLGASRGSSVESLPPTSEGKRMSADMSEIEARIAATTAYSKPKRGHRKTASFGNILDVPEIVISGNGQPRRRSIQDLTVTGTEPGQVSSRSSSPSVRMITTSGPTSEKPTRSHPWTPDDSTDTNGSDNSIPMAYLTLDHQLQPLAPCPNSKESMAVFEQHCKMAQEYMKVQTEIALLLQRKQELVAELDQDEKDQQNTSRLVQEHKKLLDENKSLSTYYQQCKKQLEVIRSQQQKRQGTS
The experiment in a line: affinity purification with mass spectrometry.

In assay [2] the target is T2, TRAF2, C-terminal His-GSG-Flag tagged bait (wild type) (UniProt Q12933).
T2 sequence: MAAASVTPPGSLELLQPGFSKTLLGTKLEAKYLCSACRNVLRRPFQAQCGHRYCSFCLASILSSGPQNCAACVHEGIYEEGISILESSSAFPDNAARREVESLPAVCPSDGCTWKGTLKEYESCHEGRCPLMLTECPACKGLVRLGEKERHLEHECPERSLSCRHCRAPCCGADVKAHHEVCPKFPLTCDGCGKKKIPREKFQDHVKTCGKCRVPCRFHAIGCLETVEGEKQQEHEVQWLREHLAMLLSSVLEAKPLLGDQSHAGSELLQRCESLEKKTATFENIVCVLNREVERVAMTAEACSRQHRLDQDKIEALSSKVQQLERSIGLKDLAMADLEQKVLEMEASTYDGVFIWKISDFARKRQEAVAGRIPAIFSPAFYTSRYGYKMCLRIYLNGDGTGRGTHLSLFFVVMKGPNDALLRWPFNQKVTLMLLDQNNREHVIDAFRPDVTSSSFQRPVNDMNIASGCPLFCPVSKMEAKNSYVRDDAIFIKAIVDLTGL
Briefly: affinity purification with mass spectrometry.

No constants are given. Whether binding was seen depends on the method and setting. In cells and extracts the contact can be indirect. Here binding means that the protein was enriched with, or labelled near, the bait; the list need not be complete. Tags and fused reporters may be left off the sequences shown.

B1: TAB1 (protein, UniProt Q15750 1-504)
chain: MAAQRRSLLQSEQQPSWTDDLPLCHLSGVGSASNRSYSADGKGTESHPPEDSWLKFRSENNCFLYGVFNGYDGNRVTNFVAQRLSAELLLGQLNAEHAEADVRRVLLQAFDVVERSFLESIDDALAEKASLQSQLPEGVPQHQLPPQYQKILERLKTLEREISGGAMAVVAVLLNNKLYVANVGTNRALLCKSTVDGLQVTQLNVDHTTENEDELFRLSQLGLDAGKIKQVGIICGQESTRRIGDYKVKYGYTDIDLLSAAKSKPIIAEPEIHGAQPLDGVTGFLVLMSEGLYKALEAAHGPGQANQEIAAMIDTEFAKQTSLDAVAQAVVDRVKRIHSDTFASGGERARFCPRHEDMTLLVRNFGYPLGEMSQPTPSPAPAAGGRVYPVSVPYSSAQSTSKTSVTLSLVMPSQGQMVNGAHSASTLDEATPTLTNQSPTLTLQSTNTHTQSSSSSSDGGLFRSRPAHSLPPGEDGRVEPYVDFAEFYRLWSVDHGEQSVVTAP
B1: in assay [1], the binding result was “binds”.

B2: TAB2 (protein, UniProt Q9NYJ8 1-693)
chain: MAQGSHQIDFQVLHDLRQKFPEVPEVVVSRCMLQNNNNLDACCAVLSQESTRYLYGEGDLNFSDDSGISGLRNHMTSLNLDLQSQNIYHHGREGSRMNGSRTLTHSISDGQLQGGQSNSELFQQEPQTAPAQVPQGFNVFGMSSSSGASNSAPHLGFHLGSKGTSSLSQQTPRFNPIMVTLAPNIQTGRNTPTSLHIHGVPPPVLNSPQGNSIYIRPYITTPGGTTRQTQQHSGWVSQFNPMNPQQVYQPSQPGPWTTCPASNPLSHTSSQQPNQQGHQTSHVYMPISSPTTSQPPTIHSSGSSQSSAHSQYNIQNISTGPRKNQIEIKLEPPQRNNSSKLRSSGPRTSSTSSSVNSQTLNRNQPTVYIAASPPNTDELMSRSQPKVYISANAATGDEQVMRNQPTLFISTNSGASAASRNMSGQVSMGPAFIHHHPPKSRAIGNNSATSPRVVVTQPNTKYTFKITVSPNKPPAVSPGVVSPTFELTNLLNHPDHYVETENIQHLTDPTLAHVDRISETRKLSMGSDDAAYTQALLVHQKARMERLQRELEIQKKKLDKLKSEVNEMENNLTRRRLKRSNSISQIPSLEEMQQLRSCNRQLQIDIDCLTKEIDLFQARGPHFNPSAIHNFYDNIGFVGPVPPKPKDQRSIIKTPKTQDTEDDEGAQWNCTACTFLNHPALIRCEQCEMPRHF
As for B2, in assay [1], the binding entry is listed as “binds”.

B3: TRAF family member-associated NFκB activator TANK (protein, UniProt Q92844 1-425)
chain: MDKNIGEQLNKAYEAFRQACMDRDSAVKELQQKTENYEQRIREQQEQLSLQQTIIDKLKSQLLLVNSTQDNNYGCVPLLEDSETRKNNLTLDQPQDKVISGIAREKLPKVRRQEVSSPRKETSARSLGSPLLHERGNIEKTFWDLKEEFHKICMLAKAQKDHLSKLNIPDTATETQCSVPIQCTDKTDKQEALFKPQAKDDINRGAPSITSVTPRGLCRDEEDTSFESLSKFNVKFPPMDNDSTFLHSTPERPGILSPATSEAVCQEKFNMEFRDNPGNFVKTEETLFEIQGIDPIASAIQNLKTTDKTKPSNLVNTCIRTTLDRAACLPPGDHNALYVNSFPLLDPSDAPFPSLDSPGKAIRGPQQPIWKPFPNQDSDSVVLSGTDSELHIPRVCEFCQAVFPPSITSRGDFLRHLNSHFNGET
For B3, the binding entry in assay [2] was “binds”.

B4: TAB3 (protein, UniProt Q8N5C8 1-712)
chain: MAQSSPQLDIQVLHDLRQRFPEIPEGVVSQCMLQNNNNLEACCRALSQESSKYLYMEYHSPDDNRMNRNRLLHINLGIHSPSSYHPGDGAQLNGGRTLVHSSSDGHIDPQHAAGKQLICLVQEPHSAPAVVAATPNYNPFFMNEQNRSAATPPSQPPQQPSSMQTGMNPSAMQGPSPPPPPPSYMHIPRYSTNPITVTVSQNLPSGQTVPRALQILPQIPSNLYGSPGSIYIRQTSQSSSGRQTPQSTPWQSSPQGPVPHYSQRPLPVYPHQQNYQPSQYSPKQQQIPQSAYHSPPPSQCPSPFSSPQHQVQPSQLGHIFMPPSPSTTPPHPYQQGPPSYQKQGSHSVAYLPYTASSLSKGSMKKIEITVEPSQRPGTAINRSPSPISNQPSPRNQHSLYTATTPPSSSPSRGISSQPKPPFSVNPVYITYTQPTGPSCTPSPSPRVIPNPTTVFKITVGRATTENLLNLVDQEERSAAPEPIQPISVIPGSGGEKGSHKYQRSSSSGSDDYAYTQALLLHQRARMERLAKQLKLEKEELERLKSEVNGMEHDLMQRRLRRVSCTTAIPTPEEMTRLRSMNRQLQINVDCTLKEVDLLQSRGNFDPKAMNNFYDNIEPGPVVPPKPSKKDSSDPCTIERKARRISVTSKVQADIHDTQAAAADEHRTGSTQSPRTQPRDEDYEGAPWNCDSCTFLNHPALNRCEQCEMPRYT
Consider B4, for which, in assay [1], the binding result is recorded as “binds”.

B5: FOSB (protein, UniProt P53539 1-338)
chain: MFQAFPGDYDSGSRCSSSPSAESQYLSSVDSFGSPPTAAASQECAGLGEMPGSFVPTVTAITTSQDLQWLVQPTLISSMAQSQGQPLASQPPVVDPYDMPGTSYSTPGMSGYSSGGASGSGGPSTSGTTSGPGPARPARARPRRPREETLTPEEEEKRRVRRERNKLAAAKCRNRRRELTDRLQAETDQLEEEKAELESEIAELQKEKERLEFVLVAHKPGCKIPYEEGPGPGPLAEVRDLPGSAPAKEDGFSWLLPPPPPPPLPFQTSQDAPPNLTASLFTHSEVQVLGDPFPVVNPSYTSSFVLTCPEVSAFAGAQRTSGSDQPSDPLNSPSLLAL
B5: the binding entry in assay [1] was “binds”.

B6: TNF receptor-associated factor TRAF1 (protein, UniProt Q13077 1-416)
chain: MASSSGSSPRPAPDENEFPFGCPPTVCQDPKEPRALCCAGCLSENPRNGEDQICPKCRGEDLQSISPGSRLRTQEKAHPEVAEAGIGCPFAGVGCSFKGSPQSVQEHEVTSQTSHLNLLLGFMKQWKARLGCGLESGPMALEQNLSDLQLQAAVEVAGDLEVDCYRAPCSESQEELALQHFMKEKLLAELEGKLRVFENIVAVLNKEVEASHLALATSIHQSQLDRERILSLEQRVVELQQTLAQKDQALGKLEQSLRLMEEASFDGTFLWKITNVTRRCHESACGRTVSLFSPAFYTAKYGYKLCLRLYLNGDGTGKRTHLSLFIVIMRGEYDALLPWPFRNKVTFMLLDQNNREHAIDAFRPDLSSASFQRPQSETNVASGCPLFFPLSKLQSPKHAYVKDDTMFLKCIVETST
For B6, the binding result in assay [2] is given as “binds”.

B7: guanine nucleotide exchange factor ARHGEF18 (protein, UniProt Q6ZSZ5 1-1361)
chain: MGDDQEDDFPRRLSESMEDLSLDLGALQGSEYLQDLGLGAPSHSQPGETPDSRPTGEEPGRDSLFSSLAGSQDLSRRRSWERSRSCSESWRRLSLDASAVDEEPCLPRTLASLALNLPGGGLKTWTQGCLSGGGTPAESPGKECDSPKKRGRSRSVPVSFYEIRSPEISPGLEVPTPPVQGLEPPVLECMEKDHVEPDHVLIVQQVLQELRQYHGARQRACMSASPGGAHSNLTWFEFLSESEDGAGKNEKSDKSTSVKRRLSCLRSRVTRQKEKGKSPAHLKDKGQDARERRECVNGHQLLQGTFSGPSSCPLCGKPFLSSASLKEHPRGTLLSDGSPALSRNVGMTVSQKGGPQPTPSPAGPGTQLGPITGEMDEADSAFLKFKQTADDSLSLTSPNTESIFVEDPYTASLRSEIESDGHEFEAESWSLAVDAAYAKKQKREVVKRQDVLYELMQTEVHHVRTLKIMLKVYSRALQEELQFSSKAIGRLFPCADDLLETHSHFLARLKERRQESLEEGSDRNYVIQKIGDLLVQQFSGENGERMKEKYGVFCSGHNEAVSHYKLLLQQNKKFQNLIKKIGNFSIVRRLGVQECILLVTQRITKYPVLVERIIQNTEAGTEDYEDLTQALNLIKDIISQVDAKVSECEKGQRLREIAGKMDLKSSSKLKNGLTFRKEDMLQRQLHLEGMLCWKTTSGRLKDILAILLTDVLLLLQEKDQKYVFASVDSKPPVISLQKLIVREVANEEKAMFLISASLQGPEMYEIYTSSKEDRNAWMAHIQRAVESCPDEEEGPFSLPEEERKVVEARATRLRDFQERLSMKDQLIAQSLLEKQQIYLEMAEMGGLEDLPQPRGLFRGGDPSETLQGELILKSAMSEIEGIQSLICRQLGSANGQAEDGGSSTGPPRRAETFAGYDCTNSPTKNGSFKKKVSSTDPRPRDWRGPPNSPDLKLSDSDIPGSSEESPQVVEAPGTESDPRLPTVLESELVQRIQTLSQLLLNLQAVIAHQDSYVETQRAAIQEREKQFRLQSTRGNLLLEQERQRNFEKQREERAALEKLQSQLRHEQQRWERERQWQHQELERAGARLQEREGEARQLRERLEQERAELERQRQAYQHDLERLREAQRAVERERERLELLRRLKKQNTAPGALPPDTLAEAQPPSHPPSFNGEGLEGPRVSMLPSGVGPEYAERPEVARRDSAPTENRLAKSDVPIQLLSATNQFQRQAAVQQQIPTKLAASTKGGKDKGGKSRGSQRWESSASFDLKQQLLLNKLMGKDESTSRNRRSLSPILPGRHSPAPPPDPGFPAPSPPPADSPSEGFSLKAGGTALLPGPPAPSPLPATPLSAKEDASKEDVIFF
Turning to B7, the binding entry in assay [1] was “binds”.
